From paper doi:10.1101/2024.06.26.600760

By UniProt entry, the sequences of proteins in these tests, tags left out. Where a name states a change or a piece, a line headed by the entry shows the natural chain unless it says otherwise.
UniProt Q13315: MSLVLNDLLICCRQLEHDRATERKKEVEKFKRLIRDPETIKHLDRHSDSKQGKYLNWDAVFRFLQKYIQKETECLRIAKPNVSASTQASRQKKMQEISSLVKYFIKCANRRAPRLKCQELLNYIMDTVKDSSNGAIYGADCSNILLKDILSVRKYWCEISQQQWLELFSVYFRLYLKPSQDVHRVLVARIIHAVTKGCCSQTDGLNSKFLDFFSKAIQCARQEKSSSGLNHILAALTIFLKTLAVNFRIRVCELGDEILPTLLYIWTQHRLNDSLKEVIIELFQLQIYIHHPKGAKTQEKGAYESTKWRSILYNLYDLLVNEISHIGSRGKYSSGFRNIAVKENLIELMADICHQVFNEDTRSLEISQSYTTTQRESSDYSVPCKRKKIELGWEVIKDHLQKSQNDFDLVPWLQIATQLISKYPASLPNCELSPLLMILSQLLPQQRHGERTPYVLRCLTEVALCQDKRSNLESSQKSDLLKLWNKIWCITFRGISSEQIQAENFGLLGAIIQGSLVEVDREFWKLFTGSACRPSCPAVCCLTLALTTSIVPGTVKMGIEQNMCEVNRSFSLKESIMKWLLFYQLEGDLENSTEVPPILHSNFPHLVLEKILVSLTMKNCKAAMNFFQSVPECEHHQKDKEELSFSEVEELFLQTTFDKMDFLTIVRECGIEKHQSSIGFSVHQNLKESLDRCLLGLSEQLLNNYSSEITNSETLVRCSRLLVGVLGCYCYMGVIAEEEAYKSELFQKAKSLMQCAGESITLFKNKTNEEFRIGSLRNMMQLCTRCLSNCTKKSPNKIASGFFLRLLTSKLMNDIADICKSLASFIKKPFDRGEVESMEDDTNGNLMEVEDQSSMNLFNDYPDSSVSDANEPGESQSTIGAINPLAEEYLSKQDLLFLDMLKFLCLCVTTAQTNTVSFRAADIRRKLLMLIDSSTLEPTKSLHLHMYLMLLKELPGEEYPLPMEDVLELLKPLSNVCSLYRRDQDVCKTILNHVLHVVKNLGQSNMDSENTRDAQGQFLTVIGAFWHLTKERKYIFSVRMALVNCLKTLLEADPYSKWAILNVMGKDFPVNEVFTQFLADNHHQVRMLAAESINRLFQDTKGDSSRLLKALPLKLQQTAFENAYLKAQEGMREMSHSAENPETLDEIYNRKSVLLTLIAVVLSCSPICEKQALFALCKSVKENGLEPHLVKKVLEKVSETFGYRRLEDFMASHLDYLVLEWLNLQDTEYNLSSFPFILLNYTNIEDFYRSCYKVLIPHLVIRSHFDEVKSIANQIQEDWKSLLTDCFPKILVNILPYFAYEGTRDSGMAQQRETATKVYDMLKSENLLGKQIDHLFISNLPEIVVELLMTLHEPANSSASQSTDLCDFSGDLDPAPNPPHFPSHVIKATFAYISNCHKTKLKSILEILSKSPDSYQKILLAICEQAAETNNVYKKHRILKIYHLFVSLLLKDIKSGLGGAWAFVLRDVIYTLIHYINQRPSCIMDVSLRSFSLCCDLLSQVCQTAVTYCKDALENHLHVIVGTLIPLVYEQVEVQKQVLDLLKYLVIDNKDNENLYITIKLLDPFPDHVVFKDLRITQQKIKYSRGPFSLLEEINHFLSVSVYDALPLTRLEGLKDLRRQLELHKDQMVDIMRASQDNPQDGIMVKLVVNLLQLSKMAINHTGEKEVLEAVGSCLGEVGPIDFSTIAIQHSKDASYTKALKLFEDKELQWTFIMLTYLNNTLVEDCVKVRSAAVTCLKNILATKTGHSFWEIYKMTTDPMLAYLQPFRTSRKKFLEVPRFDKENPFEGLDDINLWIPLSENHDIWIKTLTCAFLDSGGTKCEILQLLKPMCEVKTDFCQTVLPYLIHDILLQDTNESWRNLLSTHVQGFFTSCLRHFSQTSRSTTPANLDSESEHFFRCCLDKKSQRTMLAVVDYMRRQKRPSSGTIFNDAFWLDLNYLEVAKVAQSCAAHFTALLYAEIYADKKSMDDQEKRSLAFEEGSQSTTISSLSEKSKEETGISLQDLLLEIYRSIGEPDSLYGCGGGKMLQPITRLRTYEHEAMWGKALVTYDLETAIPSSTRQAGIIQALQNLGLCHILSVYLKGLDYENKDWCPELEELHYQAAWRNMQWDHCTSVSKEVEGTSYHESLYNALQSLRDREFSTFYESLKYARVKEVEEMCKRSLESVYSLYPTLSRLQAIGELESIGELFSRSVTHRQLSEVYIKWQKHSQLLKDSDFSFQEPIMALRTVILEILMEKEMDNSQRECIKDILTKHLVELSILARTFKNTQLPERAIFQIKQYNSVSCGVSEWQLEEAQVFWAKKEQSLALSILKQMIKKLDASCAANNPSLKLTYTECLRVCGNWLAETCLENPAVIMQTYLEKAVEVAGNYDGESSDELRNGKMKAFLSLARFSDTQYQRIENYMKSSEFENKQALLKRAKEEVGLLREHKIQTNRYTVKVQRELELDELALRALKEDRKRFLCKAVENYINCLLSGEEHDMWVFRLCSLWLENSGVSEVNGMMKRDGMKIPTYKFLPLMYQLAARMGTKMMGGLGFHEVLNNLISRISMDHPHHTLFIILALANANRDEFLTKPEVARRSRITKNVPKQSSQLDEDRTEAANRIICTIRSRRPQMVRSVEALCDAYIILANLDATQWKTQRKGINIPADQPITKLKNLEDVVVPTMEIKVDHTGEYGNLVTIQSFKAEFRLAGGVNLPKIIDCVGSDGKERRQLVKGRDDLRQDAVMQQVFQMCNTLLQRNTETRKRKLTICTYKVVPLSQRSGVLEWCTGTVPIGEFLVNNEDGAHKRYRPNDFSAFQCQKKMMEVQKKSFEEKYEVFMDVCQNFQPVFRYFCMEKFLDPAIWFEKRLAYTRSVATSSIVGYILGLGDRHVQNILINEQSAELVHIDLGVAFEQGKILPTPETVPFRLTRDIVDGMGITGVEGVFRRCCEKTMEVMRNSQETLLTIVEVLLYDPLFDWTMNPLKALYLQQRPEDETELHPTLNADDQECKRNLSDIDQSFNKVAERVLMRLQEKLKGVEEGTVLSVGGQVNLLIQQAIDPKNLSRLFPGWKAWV
UniProt Q9UBP0: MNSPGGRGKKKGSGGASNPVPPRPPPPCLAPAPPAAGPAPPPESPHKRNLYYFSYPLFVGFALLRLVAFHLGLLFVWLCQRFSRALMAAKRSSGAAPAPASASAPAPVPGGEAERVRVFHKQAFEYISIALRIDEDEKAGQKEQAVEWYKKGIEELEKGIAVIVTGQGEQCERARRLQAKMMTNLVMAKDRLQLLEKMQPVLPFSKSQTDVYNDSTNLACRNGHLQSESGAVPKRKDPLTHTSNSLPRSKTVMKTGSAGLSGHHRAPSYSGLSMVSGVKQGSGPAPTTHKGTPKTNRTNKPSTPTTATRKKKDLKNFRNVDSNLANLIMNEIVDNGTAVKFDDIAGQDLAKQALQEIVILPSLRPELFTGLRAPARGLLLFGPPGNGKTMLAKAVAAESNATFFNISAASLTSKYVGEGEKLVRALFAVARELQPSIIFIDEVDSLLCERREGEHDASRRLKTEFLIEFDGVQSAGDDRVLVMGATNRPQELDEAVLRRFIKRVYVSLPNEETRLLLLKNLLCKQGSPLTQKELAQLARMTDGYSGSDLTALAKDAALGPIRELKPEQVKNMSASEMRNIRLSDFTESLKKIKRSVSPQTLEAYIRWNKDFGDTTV

Experiments:
[1] = molecular target: Ataxia Telangiectasia Mutated (ATM) (human (endogenous in SH-SY5Y)) (UniProt Q13315); assay: co-IP
[2] = molecular target: T1, collapsin response mediator protein 5 (CRMP5) (human (endogenous in SH-SY5Y)) (UniProt Q9BPU6); assay: co-IP
T1 sequence: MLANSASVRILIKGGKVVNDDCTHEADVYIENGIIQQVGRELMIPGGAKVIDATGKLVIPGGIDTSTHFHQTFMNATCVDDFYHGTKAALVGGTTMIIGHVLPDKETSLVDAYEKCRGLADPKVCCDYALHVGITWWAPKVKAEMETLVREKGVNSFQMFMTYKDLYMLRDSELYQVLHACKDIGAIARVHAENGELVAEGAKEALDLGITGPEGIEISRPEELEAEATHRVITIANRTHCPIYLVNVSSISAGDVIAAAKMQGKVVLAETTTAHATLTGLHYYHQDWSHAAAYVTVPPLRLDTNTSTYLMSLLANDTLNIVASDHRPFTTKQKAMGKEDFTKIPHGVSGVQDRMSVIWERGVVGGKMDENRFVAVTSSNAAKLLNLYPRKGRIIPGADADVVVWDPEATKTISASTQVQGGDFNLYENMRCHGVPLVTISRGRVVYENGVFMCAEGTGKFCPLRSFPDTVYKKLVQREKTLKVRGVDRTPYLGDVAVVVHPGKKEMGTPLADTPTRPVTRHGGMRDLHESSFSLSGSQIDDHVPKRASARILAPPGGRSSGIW

In the case of Spastin (SPAST) (from UniProt Q9UBP0), the binding [1] is reported as “binds” and the binding [2] is reported as “binds”.

These are yes or no findings as the source states them, for the method shown. Binding seen in cells or lysates may run through a third protein. Binding calls can cover weak binding; strength is not graded here.
